Laboratory results as given in the supplement of paper PMC10849652.
Some of the results follow.

By UniProt entry, the sequences of proteins in these tests, tags left out. Where a name states a change or a piece, a line headed by the entry shows the natural chain unless it says otherwise.
UniProt Q9NXR7, whole entry, looked up: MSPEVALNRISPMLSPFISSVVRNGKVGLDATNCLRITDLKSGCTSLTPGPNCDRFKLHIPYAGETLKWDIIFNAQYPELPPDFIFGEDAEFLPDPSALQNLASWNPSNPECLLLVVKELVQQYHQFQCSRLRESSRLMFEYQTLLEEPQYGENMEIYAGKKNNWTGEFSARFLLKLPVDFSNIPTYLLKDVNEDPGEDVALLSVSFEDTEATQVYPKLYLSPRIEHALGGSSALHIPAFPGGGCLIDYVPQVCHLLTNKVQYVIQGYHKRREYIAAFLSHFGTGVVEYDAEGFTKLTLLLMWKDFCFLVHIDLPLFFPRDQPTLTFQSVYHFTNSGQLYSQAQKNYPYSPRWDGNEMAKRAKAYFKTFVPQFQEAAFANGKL
UniProt O15155: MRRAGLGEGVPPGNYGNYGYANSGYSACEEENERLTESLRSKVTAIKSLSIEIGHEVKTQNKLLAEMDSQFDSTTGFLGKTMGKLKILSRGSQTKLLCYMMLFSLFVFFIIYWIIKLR
UniProt P07738: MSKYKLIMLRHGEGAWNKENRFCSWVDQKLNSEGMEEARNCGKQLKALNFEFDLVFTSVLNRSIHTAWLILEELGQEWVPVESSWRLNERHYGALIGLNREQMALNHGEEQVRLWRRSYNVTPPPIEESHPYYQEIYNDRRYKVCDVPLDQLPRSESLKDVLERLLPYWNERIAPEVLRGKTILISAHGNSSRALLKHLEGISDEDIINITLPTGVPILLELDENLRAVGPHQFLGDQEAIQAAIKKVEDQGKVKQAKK
UniProt O95817, whole entry, looked up: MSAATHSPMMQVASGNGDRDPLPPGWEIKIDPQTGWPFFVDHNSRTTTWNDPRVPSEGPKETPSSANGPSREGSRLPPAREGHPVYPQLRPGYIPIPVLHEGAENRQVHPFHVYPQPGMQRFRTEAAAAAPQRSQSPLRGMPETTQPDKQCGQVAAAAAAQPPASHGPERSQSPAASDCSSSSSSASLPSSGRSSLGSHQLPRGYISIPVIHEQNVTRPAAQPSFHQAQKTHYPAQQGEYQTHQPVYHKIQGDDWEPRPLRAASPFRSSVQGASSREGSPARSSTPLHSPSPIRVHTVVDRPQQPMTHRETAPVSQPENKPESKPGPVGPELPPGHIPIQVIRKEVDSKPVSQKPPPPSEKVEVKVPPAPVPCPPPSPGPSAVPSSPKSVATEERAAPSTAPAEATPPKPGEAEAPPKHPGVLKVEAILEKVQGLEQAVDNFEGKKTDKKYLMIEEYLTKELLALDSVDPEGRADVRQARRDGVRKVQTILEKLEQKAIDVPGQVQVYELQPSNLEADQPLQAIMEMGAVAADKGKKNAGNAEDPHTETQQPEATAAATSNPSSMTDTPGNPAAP
UniProt O94766: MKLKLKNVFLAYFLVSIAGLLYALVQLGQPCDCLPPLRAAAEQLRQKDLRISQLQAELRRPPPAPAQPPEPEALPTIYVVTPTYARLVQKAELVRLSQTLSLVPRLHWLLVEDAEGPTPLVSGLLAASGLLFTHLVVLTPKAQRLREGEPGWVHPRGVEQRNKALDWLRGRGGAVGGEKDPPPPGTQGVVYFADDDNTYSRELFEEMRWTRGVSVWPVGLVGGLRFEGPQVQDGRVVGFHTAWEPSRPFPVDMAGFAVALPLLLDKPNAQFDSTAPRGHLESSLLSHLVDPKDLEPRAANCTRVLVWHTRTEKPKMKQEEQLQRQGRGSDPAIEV
UniProt Q6QNY1: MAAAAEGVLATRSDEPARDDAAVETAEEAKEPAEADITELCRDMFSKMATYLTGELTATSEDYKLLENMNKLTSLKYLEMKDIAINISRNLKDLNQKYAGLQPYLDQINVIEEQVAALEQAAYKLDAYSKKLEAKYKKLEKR
UniProt P51572: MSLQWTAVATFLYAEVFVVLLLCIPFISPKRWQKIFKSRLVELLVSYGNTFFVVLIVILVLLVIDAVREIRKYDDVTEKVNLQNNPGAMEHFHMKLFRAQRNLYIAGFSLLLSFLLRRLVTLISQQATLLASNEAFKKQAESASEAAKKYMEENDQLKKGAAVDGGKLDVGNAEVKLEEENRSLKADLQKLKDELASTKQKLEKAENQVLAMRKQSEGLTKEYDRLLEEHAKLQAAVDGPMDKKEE
UniProt Q96GX2: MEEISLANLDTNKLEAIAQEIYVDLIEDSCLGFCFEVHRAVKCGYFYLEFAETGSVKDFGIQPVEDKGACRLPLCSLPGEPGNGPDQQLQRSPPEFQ
UniProt P21953: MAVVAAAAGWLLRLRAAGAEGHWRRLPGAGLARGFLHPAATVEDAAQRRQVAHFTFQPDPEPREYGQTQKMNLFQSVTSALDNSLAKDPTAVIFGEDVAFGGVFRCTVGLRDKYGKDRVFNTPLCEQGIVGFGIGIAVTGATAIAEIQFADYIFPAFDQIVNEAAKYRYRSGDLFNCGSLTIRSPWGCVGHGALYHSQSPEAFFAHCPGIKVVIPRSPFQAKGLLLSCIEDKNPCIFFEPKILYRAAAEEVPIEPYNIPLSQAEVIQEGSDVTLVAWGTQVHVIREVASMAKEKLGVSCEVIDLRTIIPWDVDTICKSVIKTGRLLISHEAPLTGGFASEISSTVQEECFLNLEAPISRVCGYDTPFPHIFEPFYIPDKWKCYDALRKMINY
UniProt O75363: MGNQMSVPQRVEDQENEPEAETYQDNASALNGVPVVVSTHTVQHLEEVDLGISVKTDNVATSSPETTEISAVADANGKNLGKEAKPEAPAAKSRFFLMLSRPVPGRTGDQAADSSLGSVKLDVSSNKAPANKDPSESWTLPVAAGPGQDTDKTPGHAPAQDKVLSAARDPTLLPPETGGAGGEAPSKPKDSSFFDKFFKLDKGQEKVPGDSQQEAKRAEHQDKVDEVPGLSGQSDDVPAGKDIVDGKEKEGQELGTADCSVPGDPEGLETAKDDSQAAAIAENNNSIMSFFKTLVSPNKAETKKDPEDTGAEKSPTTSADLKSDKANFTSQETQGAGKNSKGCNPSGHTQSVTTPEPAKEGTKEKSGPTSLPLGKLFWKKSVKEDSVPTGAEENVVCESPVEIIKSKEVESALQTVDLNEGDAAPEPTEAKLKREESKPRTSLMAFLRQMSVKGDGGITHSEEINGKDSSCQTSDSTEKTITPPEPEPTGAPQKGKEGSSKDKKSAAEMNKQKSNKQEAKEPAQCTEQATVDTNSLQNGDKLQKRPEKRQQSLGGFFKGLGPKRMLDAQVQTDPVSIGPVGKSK
UniProt P46379: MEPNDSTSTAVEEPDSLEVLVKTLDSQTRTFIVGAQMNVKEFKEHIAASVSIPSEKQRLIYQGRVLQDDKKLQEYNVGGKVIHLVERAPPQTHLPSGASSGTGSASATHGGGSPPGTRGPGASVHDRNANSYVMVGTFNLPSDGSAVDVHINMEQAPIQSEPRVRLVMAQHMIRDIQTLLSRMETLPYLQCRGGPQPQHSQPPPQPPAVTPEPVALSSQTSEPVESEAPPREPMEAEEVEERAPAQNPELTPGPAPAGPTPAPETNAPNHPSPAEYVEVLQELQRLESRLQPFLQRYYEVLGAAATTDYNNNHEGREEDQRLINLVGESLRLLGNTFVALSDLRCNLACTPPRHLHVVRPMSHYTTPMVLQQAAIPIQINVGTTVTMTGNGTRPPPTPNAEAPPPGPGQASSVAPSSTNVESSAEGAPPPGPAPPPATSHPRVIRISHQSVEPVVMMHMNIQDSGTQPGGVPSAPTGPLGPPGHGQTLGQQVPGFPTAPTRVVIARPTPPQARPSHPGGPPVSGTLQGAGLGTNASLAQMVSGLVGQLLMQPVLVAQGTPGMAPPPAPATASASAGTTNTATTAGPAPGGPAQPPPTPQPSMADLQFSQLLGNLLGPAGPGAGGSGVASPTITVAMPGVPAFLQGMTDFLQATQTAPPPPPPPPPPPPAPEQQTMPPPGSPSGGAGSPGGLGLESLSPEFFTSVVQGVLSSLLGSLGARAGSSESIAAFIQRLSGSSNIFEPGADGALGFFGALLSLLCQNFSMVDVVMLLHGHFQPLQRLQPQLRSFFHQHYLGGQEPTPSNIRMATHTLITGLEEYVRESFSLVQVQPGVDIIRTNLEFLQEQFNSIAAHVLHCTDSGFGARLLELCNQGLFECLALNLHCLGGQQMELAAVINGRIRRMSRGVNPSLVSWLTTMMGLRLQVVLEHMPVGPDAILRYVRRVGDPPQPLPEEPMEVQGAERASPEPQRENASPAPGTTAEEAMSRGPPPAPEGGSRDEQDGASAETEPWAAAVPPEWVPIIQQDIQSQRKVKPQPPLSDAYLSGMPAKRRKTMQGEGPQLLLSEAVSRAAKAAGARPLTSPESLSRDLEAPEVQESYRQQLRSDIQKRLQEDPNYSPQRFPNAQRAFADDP
UniProt Q07812, whole entry, looked up: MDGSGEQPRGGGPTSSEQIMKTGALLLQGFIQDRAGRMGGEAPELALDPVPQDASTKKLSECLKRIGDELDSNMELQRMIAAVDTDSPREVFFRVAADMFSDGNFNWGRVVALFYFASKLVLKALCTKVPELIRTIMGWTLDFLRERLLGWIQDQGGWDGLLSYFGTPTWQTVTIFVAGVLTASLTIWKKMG
UniProt O95429: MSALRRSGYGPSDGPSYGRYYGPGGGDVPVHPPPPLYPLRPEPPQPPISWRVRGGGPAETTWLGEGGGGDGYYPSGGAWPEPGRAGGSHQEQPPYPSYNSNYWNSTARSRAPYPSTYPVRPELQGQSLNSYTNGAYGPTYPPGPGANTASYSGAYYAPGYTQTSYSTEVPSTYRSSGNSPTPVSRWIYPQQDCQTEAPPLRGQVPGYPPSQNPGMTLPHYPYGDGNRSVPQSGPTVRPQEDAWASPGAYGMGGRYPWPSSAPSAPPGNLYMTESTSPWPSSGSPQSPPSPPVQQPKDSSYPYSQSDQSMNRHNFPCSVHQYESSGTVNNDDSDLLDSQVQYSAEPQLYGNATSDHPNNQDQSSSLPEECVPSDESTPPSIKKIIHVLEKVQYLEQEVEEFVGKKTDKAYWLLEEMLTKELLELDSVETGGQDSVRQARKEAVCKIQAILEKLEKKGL
UniProt Q6PJG6: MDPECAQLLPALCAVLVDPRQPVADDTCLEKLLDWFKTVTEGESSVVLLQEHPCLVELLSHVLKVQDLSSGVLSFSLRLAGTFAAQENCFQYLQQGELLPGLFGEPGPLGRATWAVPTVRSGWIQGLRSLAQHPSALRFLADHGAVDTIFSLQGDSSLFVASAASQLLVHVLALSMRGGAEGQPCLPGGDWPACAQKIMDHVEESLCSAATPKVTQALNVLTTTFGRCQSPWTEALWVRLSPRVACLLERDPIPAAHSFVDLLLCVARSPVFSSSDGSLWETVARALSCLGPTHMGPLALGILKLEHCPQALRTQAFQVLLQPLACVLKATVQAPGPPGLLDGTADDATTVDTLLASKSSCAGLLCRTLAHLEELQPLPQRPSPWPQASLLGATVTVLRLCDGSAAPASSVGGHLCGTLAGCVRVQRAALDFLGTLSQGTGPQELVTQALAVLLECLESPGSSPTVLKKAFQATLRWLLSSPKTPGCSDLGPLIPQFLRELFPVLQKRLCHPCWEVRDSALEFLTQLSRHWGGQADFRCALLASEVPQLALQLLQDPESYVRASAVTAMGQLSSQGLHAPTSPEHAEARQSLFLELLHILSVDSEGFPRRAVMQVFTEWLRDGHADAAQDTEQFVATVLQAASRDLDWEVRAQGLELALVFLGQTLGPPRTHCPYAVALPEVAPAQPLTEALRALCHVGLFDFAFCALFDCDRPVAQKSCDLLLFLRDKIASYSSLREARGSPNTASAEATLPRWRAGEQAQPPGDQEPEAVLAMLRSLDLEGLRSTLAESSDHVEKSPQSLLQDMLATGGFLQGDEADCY
UniProt Q53S33: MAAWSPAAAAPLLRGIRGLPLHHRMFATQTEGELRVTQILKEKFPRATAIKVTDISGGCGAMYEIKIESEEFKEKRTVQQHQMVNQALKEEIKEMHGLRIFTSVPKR

Assays:
Experiment in all cases: log2 fold change, soluble protein after heating vs DMSO (PISA); higher = thermal stabilisation; K562 cells, 10 uM, 30 min; active = over 0.2 and 3.5 SD of the protein, either way, in both replicates (recomputed)
[1] = compound: CC[C@@H]1C(=O)N(C)c2cnc(Nc3ccc(C(=O)NC4CCN(C)CC4)cc3OC)nc2N1C1CCCC1
Method in brief: (§1)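 K562 cells at 2×10^6 cells/mL were exposed to 10 μM compound for 30 min, then aliquots were heated for 3 min across 48°C-58°C, pooled, and extracted in PBS containing 0.5% NP-40 at 4°C. The supernatant after 21,000xg for 90 min was taken as soluble protein and measured by TMTpro 16plex LC-MS/MS with channel sums equalised. Thermal stability is reported relative to control samples, with values from duplicates. Fold changes are given on a log2 scale.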

[2] = compound: CC[C@@H]1C(=O)N(C)c2cnc(Nc3ccc(C(=O)N[C@H]4CC[C@H](N5CCN(CC6CC6)CC5)CC4)cc3OC)nc2N1C(C)C [volasertib]
Method in brief: as §1

[3] = compound: CC[C@H](C)N1C=C(C2=C(C=C(C=C21)C3=CN=C(C=C3)N4CCNCC4)C(=O)NCC5=C(C=C(NC5=O)C)C)C
Method in brief: as §1

[4] = compound: CC[C@H](C)[C@@H](C(=O)N[C@@H]([C@@H](C)O)C(=O)N[C@@H](CC(C)C)C(=O)[C@]1(CO1)C)NC(=O)[C@H]([C@@H](C)CC)N(C)C(=O)C [epoxomicin]
Method in brief: as §1

[5] = compound: CCn1c(C(=O)N(C2CC2)C2CC2)cc2c3c(ncn3C)c(Nc3cc(C)n(C)n3)nc21
Method in brief: as §1

[6] = compound: CCn1cc(-c2ccnc3[nH]c(-c4cccc(CN(C)C)c4)cc23)c(-c2ccc(NC(=O)N(C)C)cc2)n1
Method in brief: as §1

[7] = compound: CN(C)CC(=O)Nc1ccc2[nH]c(=O)c3ccccc3c2c1
Method in brief: as §1

[8] = compound: CN(CCOC1=CC=C(C=C1)C[C@H]2C(=O)NC(=O)S2)C3=CC=CC=N3 (racemic) [rosiglitazone]
Method in brief: as §1

[9] = compound: CN1C2=C(C3=C1C(=O)N(N=C3)CC4=CC(=CC=C4)N)SC(=C2)S(=O)C
Method in brief: as §1

[10] = compound: CN1CCC(CNc2ccc3ncc(-c4cccc(OC(F)(F)F)c4)n3n2)CC1
Method in brief: as §1

[11] = compound: CN1CCN(CCOc2cc(OC3CCOCC3)c3c(Nc4c(Cl)ccc5c4OCO5)ncnc3c2)CC1 [saracatinib]
Method in brief: as §1

[12] = compound: CN1CCN(c2nc(C3=C(c4c[nH]c5ccccc45)C(=O)NC3=O)c3ccccc3n2)CC1 [sotrastaurin]
Method in brief: as §1

[13] = compound: CN1CC[C@H](c2c(O)cc(O)c3c(=O)cc(-c4ccccc4Cl)oc23)[C@H](O)C1 [alvocidib]
Method in brief: as §1

[14] = compound: CN1CCc2c(c3ccccc3n2Cc2ccc(C(=O)NO)cc2)C1 [Tubastatin A]
Method in brief: as §1

[15] = compound: CNC(=O)C1=CC=CC=C1NC2=NC(=NC=C2Cl)NC3=C(C=C(C=C3)N4CCOCC4)OC
Method in brief: as §1

[16] = compound: CNC(=O)c1ccc(Nc2ncc(C(F)(F)F)c(NCc3nccnc3N(C)S(C)(=O)=O)n2)cc1 [defactinib]
Method in brief: as §1

[17] = compound: CNCc1ccc(-c2[nH]c3cc(F)cc4c3c2CCNC4=O)cc1 [rucaparib]
Method in brief: as §1

[18] = compound: CNc1nc(-c2ccc3c(N)n[nH]c3c2)cc(N2C[C@@H](C(=O)NC3CCCCC3)CC[C@H]2C)n1
Method in brief: as §1

[19] = compound: COC(=O)N[C@@H](C)CNc1nccc(-c2cn(C(C)C)nc2-c2cc(Cl)cc(NS(C)(=O)=O)c2F)n1 [encorafenib]
Method in brief: as §1

[20] = compound: COC(=O)[C@H](CCSC)NC(=O)C1=C(C=C(C=C1)NC[C@H](CS)N)C2=CC=CC=C2
Method in brief: as §1

Measured: log2 fold change

BABAM2 (UniProt Q9NXR7)
inactive: [1] 0.038 | [2] 0.107 | [3] -0.052 | [4] -0.06 | [5] 0.023 | [6] -0.026 | [7] 0.012 | [8] -0.007 | [9] 0.001 | [10] 0.019 | [11] 0.074 | [12] -0.007 | [13] 0.009 | [14] -0.108 | [15] -0.027 | [16] -0.019 | [17] 0.083 | [18] -0.038 | [19] -0.026 | [20] 0.042

BET1 (UniProt O15155)
inactive: [1] 0 | [2] -0.049 | [3] 0.008 | [4] 0.032 | [5] 0.06 | [6] -0.004 | [7] 0 | [8] 0.035 | [9] -0.019 | [10] -0.024 | [11] -0.004 | [12] 0.07 | [13] 0.027 | [14] -0.031 | [15] -0.011 | [16] -0.027 | [17] -0.007 | [18] -0.049 | [19] 0.013 | [20] -0.055

BPGM (UniProt P07738)
inactive: [1] 0.028 | [2] 0.027 | [3] -0.022 | [4] -0.004 | [5] -0.046 | [6] -0.011 | [7] 0.041 | [8] 0.024 | [9] -0.069 | [10] -0.018 | [11] 0.04 | [12] 0.068 | [13] 0 | [14] 0.012 | [15] -0.051 | [16] 0.007 | [17] -0.001 | [18] -0.062 | [19] -0.047 | [20] 0.003

BAG3 (UniProt O95817)
inactive: [1] -0.052 | [2] 0.027 | [3] -0.01 | [4] 0.018 | [5] 0.012 | [6] -0.008 | [7] -0.026 | [8] -0.011 | [9] 0.011 | [10] -0.137 | [11] 0.063 | [12] 0.063 | [13] 0.015 | [14] -0.003 | [15] -0.019 | [16] -0.019 | [17] 0.003 | [18] -0.052 | [19] -0.091 | [20] 0.031

BORCS5 (UniProt Q969J3)
inactive: [1] -0.056 | [2] 0.096 | [3] -0.016 | [4] -0.111 | [5] 0.019 | [6] 0.066 | [7] 0.024 | [8] 0.027 | [9] -0.047 | [10] -0.238 | [11] 0.027 | [12] 0.005 | [13] -0.067 | [14] -0.051 | [15] -0.04 | [16] 0.074 | [17] 0.079 | [18] -0.065 | [19] -0.021 | [20] 0.115

B3GAT3 (UniProt O94766)
inactive: [1] -0.068 | [2] -0.112 | [3] 0 | [4] -0.019 | [5] -0.036 | [6] 0.028 | [7] -0.146 | [8] -0.108 | [9] -0.057 | [10] 0.121 | [11] 0.007 | [12] 0.012 | [13] -0.056 | [14] 0.005 | [15] -0.009 | [16] 0.138 | [17] 0.16 | [18] -0.039 | [19] 0.088 | [20] 0.023

BLOC1S2 (UniProt Q6QNY1)
inactive: [1] 0.063 | [2] -0.033 | [3] -0.007 | [4] 0.131 | [5] -0.024 | [6] -0.019 | [7] -0.096 | [8] 0 | [9] -0.002 | [10] -0.021 | [11] -0.021 | [12] 0.114 | [13] 0 | [14] -0.033 | [15] -0.001 | [16] 0.035 | [17] -0.114 | [18] -0.088 | [19] 0.038 | [20] 0.074

BCAP31 isoform 2 (UniProt P51572)
inactive: [1] -0.001 | [2] 0.086 | [3] -0.058 | [4] -0.003 | [5] 0.032 | [6] 0.056 | [7] -0.051 | [8] -0.009 | [9] -0.02 | [10] 0.137 | [11] 0.03 | [12] 0.039 | [13] -0.001 | [14] -0.016 | [15] -0.004 | [16] 0.002 | [17] -0.078 | [18] -0.02 | [19] -0.021 | [20] 0.01

ATXN7L3B (UniProt Q96GX2)
inactive: [1] -0.02 | [2] -0.041 | [3] -0.002 | [4] 0.021 | [5] 0.014 | [6] 0.021 | [7] 0.146 | [8] 0.023 | [9] -0.036 | [10] -0.031 | [11] -0.025 | [12] 0.028 | [13] -0.076 | [14] 0.071 | [15] -0.008 | [16] 0.039 | [17] 0.019 | [18] -0.012 | [19] -0.043 | [20] 0.093

BCKDHB (UniProt P21953)
inactive: [1] -0.251 | [2] -0.079 | [3] -0.068 | [4] -0.054 | [5] 0.003 | [6] -0.139 | [7] -0.039 | [8] 0.117 | [9] 0.003 | [10] -0.108 | [11] 0.073 | [12] 0.348 | [13] 0.049 | [14] -0.19 | [15] -0.024 | [16] 0 | [17] 0.02 | [18] 0.031 | [19] -0.016 | [20] -0.05

2 neighbouring entries from above, for reference:
BCAP31 isoform 2 (UniProt P51572)
inactive: [1] -0.001 | [2] 0.086 | [3] -0.058 | [4] -0.003 | [5] 0.032 | [6] 0.056 | [7] -0.051 | [8] -0.009 | [9] -0.02 | [10] 0.137 | [11] 0.03 | [12] 0.039 | [13] -0.001 | [14] -0.016 | [15] -0.004 | [16] 0.002 | [17] -0.078 | [18] -0.02 | [19] -0.021 | [20] 0.01

ATXN7L3B (UniProt Q96GX2)
inactive: [1] -0.02 | [2] -0.041 | [3] -0.002 | [4] 0.021 | [5] 0.014 | [6] 0.021 | [7] 0.146 | [8] 0.023 | [9] -0.036 | [10] -0.031 | [11] -0.025 | [12] 0.028 | [13] -0.076 | [14] 0.071 | [15] -0.008 | [16] 0.039 | [17] 0.019 | [18] -0.012 | [19] -0.043 | [20] 0.093

Additional records.

BCAS1 (UniProt O75363)
inactive: [1] 0.085 | [2] 0.031 | [3] -0.09 | [4] 0.054 | [5] -0.021 | [6] 0.052 | [7] -0.061 | [8] 0.151 | [9] -0.074 | [10] -0.029 | [11] 0.025 | [12] 0.009 | [13] 0.061 | [14] -0.011 | [15] -0.007 | [16] 0.022 | [17] 0.006 | [18] -0.017 | [19] -0.046 | [20] 0.157

BAG6 isoform 3 (UniProt P46379)
inactive: [1] -0.05 | [2] -0.173 | [3] 0.058 | [4] 0.03 | [5] -0.009 | [6] 0.005 | [7] 0.006 | [8] 0.036 | [9] 0.019 | [10] -0.039 | [11] -0.01 | [12] -0.085 | [13] -0.054 | [14] -0.012 | [15] 0.026 | [16] -0.064 | [17] 0.002 | [18] -0.036 | [19] 0.028 | [20] -0.039

BAX isoform 2 (UniProt Q07812)
inactive: [1] 0.017 | [2] -0.007 | [3] -0.055 | [4] 0.026 | [5] 0.004 | [6] 0.025 | [7] 0.049 | [8] 0.014 | [9] -0.037 | [10] 0.035 | [11] 0.045 | [12] 0.003 | [13] 0.05 | [14] -0.033 | [15] 0.01 | [16] -0.014 | [17] -0.042 | [18] -0.051 | [19] -0.006 | [20] 0.03

BAG4 (UniProt O95429)
inactive: [1] -0.015 | [2] -0.061 | [3] 0.047 | [4] 0.023 | [5] 0.089 | [6] -0.022 | [7] -0.03 | [8] 0.056 | [9] -0.112 | [10] -0.052 | [11] 0.009 | [12] 0.015 | [13] -0.109 | [14] -0.04 | [15] -0.021 | [16] -0.112 | [17] 0.013 | [18] -0.018 | [19] 0.034 | [20] -0.011

BRAT1 (UniProt Q6PJG6)
inactive: [1] -0.102 | [2] -0.097 | [3] -0.013 | [4] 0.036 | [5] 0.053 | [6] -0.049 | [7] 0.035 | [8] 0.023 | [9] -0.041 | [10] -0.016 | [11] 0.001 | [12] -0.045 | [13] -0.155 | [14] 0.037 | [15] 0.002 | [16] -0.065 | [17] 0.009 | [18] -0.042 | [19] 0.009 | [20] -0.053

BOLA3 (UniProt Q53S33)
inactive: [1] -0.002 | [2] 0.062 | [3] -0.003 | [4] 0.02 | [5] -0.018 | [6] 0.063 | [7] -0.013 | [8] 0.012 | [9] -0.027 | [10] 0.035 | [11] 0.009 | [12] 0.077 | [13] -0.039 | [14] -0.021 | [15] 0.003 | [16] -0.028 | [17] -0.044 | [18] -0.051 | [19] -0.073 | [20] -0.02
